# PubChem BioAssay AID1259308, NCATS | 2017
# Purpose: 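Genes whose loss raises luciferase production in HEK293 cells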 (primary screen)
# Cell system: human HEK293 embryonic kidney cells stably expressing firefly luciferase (HEK-CMV-Luc2-Hygro)
# Knock-down reagent: single siRNA against human genes, 0.8 pmol siRNA per well
# Duration: 72 h
# Measurement: 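Luciferase light (ONE-Glo) measured on one replicate plate set and viability (CellTiter-Glo) on the other, scaled to a negative control siRNA, with robust z-scores and luciferase per cell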
# Reading the numbers: total luciferase, z-score and total luciferase, % of control: higher = more reporter protein produced; luciferase per cell, z-score: higher = more reporter output per viable cell; viable cells, % of control: higher = more viable cells
# Call rule: 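Active when the median/MAD z-score for overall luciferase is greater than 3; a gene was taken forward for validation with new siRNAs if at least two of its three siRNAs passed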
# Calls: active = raised luciferase; inactive = no rise
# The whole screen tested about 59,000 reagents; below is an unselected part. About 1,510 of them (2.6%) count as active. 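Calls use total luciferase alone and ignore viability, so some active siRNAs may act by altering cell number.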 A number with no mark means an inactive call. Reagents against one gene are numbered here. Reagent sequences are not shown.
Target gene,siRNA no.,"total luciferase, z-score","total luciferase, % of control","luciferase per cell, z-score","viable cells, % of control"
MKLN1,1,0.92,100,1.53,74.9
MKLN1,2,-0.375,74.4,-0.701,100
MKLN1,3,0.012,82.1,-0.104,94.3
TMEM240,1,1.28,107,1.74,75.9
TMEM240,2,-1.72,47.7,-1.46,78.3
TMEM240,3,-0.897,64.1,-0.702,86.1
GRIN2A,1,-0.952,63,-0.832,87.6
GRIN2A,2,0.0573,83,0.423,83
GRIN2A,3,-0.138,79.1,-0.943,113
GPR15,1,1.01,102,2.05,66.5
GPR15,2,0.252,86.9,0.192,92.3
GPR15,3,0.154,85,-0.568,110
KIR3DP1,1,0.105,84,1.08,70.6
KIR3DP1,2,-0.465,72.6,-0.652,96.4
KIR3DP1,3,0.136,84.6,1.68,60.8
FUT7,1,-0.067,80.6,0.08,88.1
FUT7,2,0.0359,82.6,0.0689,90.6
FUT7,3,-1.59,50.3,-2.13,98.6
IRF4,1,-0.395,74,-0.791,102
IRF4,2,0.543,92.7,0.475,91.4
IRF4,3,-0.231,77.3,-0.556,100
LINC02693,1,-0.627,69.4,0.782,63.1
LINC02693,2,-0.287,76.2,0.249,79.7
LINC02693,3,-0.152,78.9,-0.101,90.5
ABT1,1,-1.42,53.7,-1.71,94
ABT1,2,-0.318,75.6,-0.191,88.8
ABT1,3,-2.64,29.3,-3.42,80.7
SMTNL2,1,2.11,124,1.9,83.8
SMTNL2,2,0.932,100,1.76,70.6
SMTNL2,3,-0.0221,81.4,0.128,88
TMPRSS4,1,-0.272,76.5,0.254,79.9
TMPRSS4,2,-0.868,64.6,-0.781,88.7
TMPRSS4,3,-0.318,75.6,-1.19,116
EPN1,1,-0.878,64.4,-0.821,89.3
EPN1,2,-0.785,66.3,-0.421,82.7
EPN1,3,-3.08,20.5,-2.37,42.9
PDZD4,1,1.17,105,2.87,55.2
PDZD4,2,0.166,85.2,0.739,78.4
PDZD4,3,-0.328,75.4,-0.017,84.6
SIDT2,1,-0.411,73.7,-0.442,92.5
SIDT2,2,0.378,89.4,-0.127,103
SIDT2,3,2.87,139,2.34,83.9
EXOC8,1,0.357,89,0.485,87.5
EXOC8,2,0.11,84.1,0.199,89.2
EXOC8,3,1.05,103,1.02,87.9
CFAP46,1,-0.541,71.1,-0.203,83.8
CFAP46,2,-1.34,55.3,-1.33,87.6
CFAP46,3,-0.123,79.4,-0.23,94.3
CFAP46,4,1.11,104,0.792,94.3
CFAP46,5,-0.332,75.3,-0.0748,85.8
CFAP46,6,1.79,117,0.753,108
NCAPG2,1,-0.316,75.6,-0.292,91.2
NCAPG2,2,0.112,84.1,0.131,90.8
NCAPG2,3,-1.15,59.1,-1.31,93.1
OR8B2,1,-2.77,26.9,-2.22,53.9
OR8B2,2,-0.146,79,-0.219,93.5
OR8B2,3,-0.858,64.8,-0.773,88.8
LCORL,1,3.5 (active),152,3.11,74.6
LCORL,2,-0.324,75.4,0.763,69
LCORL,3,-1.53,51.5,-1.91,95.2
KLHDC4,1,0.0648,83.2,-0.191,97.7
KLHDC4,2,0.452,90.9,0.626,86.1
KLHDC4,3,-2.03,41.5,-1.2,63.7
C5orf58,1,-0.878,64.4,0.192,68.4
C5orf58,2,0.416,90.2,0.208,95.4
C5orf58,3,-0.262,76.7,-0.787,105
CCDC191,1,-0.261,76.7,-0.566,99.5
CCDC191,2,0.0502,82.9,-0.329,101
CCDC191,3,-0.466,72.6,0.166,77.7
SNAP25,1,-1.35,55,-1.35,87.8
SNAP25,2,-0.331,75.3,0.165,80.6
SNAP25,3,0.915,100,1.25,80.5
SH2D3A,1,0.28,87.5,0.233,91.9
SH2D3A,2,1.23,106,2.54,60.9
SH2D3A,3,0.26,87.1,-0.63,115

8 entries from above, set out differently.
KLHDC4 #3: total luciferase, z-score = -2.03; total luciferase, % of control = 41.5; luciferase per cell, z-score = -1.2; viable cells, % of control = 63.7
C5orf58 #1: total luciferase, z-score = -0.878; total luciferase, % of control = 64.4; luciferase per cell, z-score = 0.192; viable cells, % of control = 68.4
C5orf58 #2: total luciferase, z-score = 0.416; total luciferase, % of control = 90.2; luciferase per cell, z-score = 0.208; viable cells, % of control = 95.4
C5orf58 #3: total luciferase, z-score = -0.262; total luciferase, % of control = 76.7; luciferase per cell, z-score = -0.787; viable cells, % of control = 105
CCDC191 #1: total luciferase, z-score = -0.261; total luciferase, % of control = 76.7; luciferase per cell, z-score = -0.566; viable cells, % of control = 99.5
CCDC191 #2: total luciferase, z-score = 0.0502; total luciferase, % of control = 82.9; luciferase per cell, z-score = -0.329; viable cells, % of control = 101
CCDC191 #3: total luciferase, z-score = -0.466; total luciferase, % of control = 72.6; luciferase per cell, z-score = 0.166; viable cells, % of control = 77.7
SNAP25 #1: total luciferase, z-score = -1.35; total luciferase, % of control = 55; luciferase per cell, z-score = -1.35; viable cells, % of control = 87.8
